From US20110098339A1 come the findings set out here.

Results are given in words; binding and its absence hold for the method and conditions named. In cells and extracts the contact can be indirect. Some binding calls cover weakened binding; strength is not graded here. Sequences can lack the tags named with a protein.

Experiment [1] concerns the target T1, ANT2-Flag (human) (UniProt P05141).
T1 sequence: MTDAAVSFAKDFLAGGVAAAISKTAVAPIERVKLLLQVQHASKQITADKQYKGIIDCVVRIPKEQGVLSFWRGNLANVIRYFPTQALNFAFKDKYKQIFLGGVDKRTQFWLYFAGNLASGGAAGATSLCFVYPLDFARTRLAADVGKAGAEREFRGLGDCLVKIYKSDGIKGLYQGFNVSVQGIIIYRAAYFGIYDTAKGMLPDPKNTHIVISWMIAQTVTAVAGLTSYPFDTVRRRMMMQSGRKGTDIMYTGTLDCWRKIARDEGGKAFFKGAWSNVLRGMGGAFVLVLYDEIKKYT
Briefly: co-immunoprecipitation with anti-Flag antibody from co-transfected COS-7 lysate, western blot with anti-HA. Background: A western blot detects proteins with antibodies after separation by electrophoresis.

The target of experiment [2] is T1, ANT2-Flag (human). The experiment is described as follows: co-immunoprecipitation with anti-Flag antibody from co-transfected COS7 lysate, western blot with anti-HA (FIG. 3C right).

B1: C2orf18-HA (protein, not shown: small tags and cut ends)
chain: SINTLSAKWADNFMAEGCGGSKEHSFQHPFLQAVGMFLGEFSCLAAFYLLRCRAAGQSDSSVDPQQPFNPLLFLPPALCDMTGTSLMYVALNMTSASSFQMLRGAVIIFTGLFSVAFLGRRLVLSQWLGILATIAGLVVVGLADLLSKHDSQHKLSEVITGDLLIIMAQIIVAIQMVLEEKFVYKHNVHPLRAVGTEGLFGFVILSLLLVPMYYIPAGSFSGNPRGTLEDALDAFCQVGQQPLIAVALLGNISSIAFFNFAGISVTKELSATTRMVLDSLRTVVIWALSLALGWEAFHALQILGFLILLIGTALYNGLHRPLLGRLSRGRPLAEESEQERLLGGTRTPINDAS
As to B1, the binding result in experiment [1] and in experiment [2] was “binds” in each case.
